Laboratory results taken from patent publication US20240327477A1, “COMPOSITIONS AND METHODS FOR THE TREATMENT OF TDP-43 PROTEINOPATHIES” (SOLA BIOSCIENCES LLC, priority 2020, published 2024).

Type: in vivo, mouse
Conditions: C57BL/6J mice

## Construct 3: DnaJB1 J domain fused to scFv(3B12A)
AAV rh10, ICV, cerebrum extracts
  expression 8 weeks after ICV injection compared with 3 weeks: significantly higher
AAV rh10, intrathecal or ICV injection, no detection in control mice (FIG. 15)
  expression of Construct 3 in cerebrum extracts (immunoblot): resulted in expression
